Results as given in PubChem BioAssay AID2685 (National Center for Advancing Translational Sciences (NCATS), 2010).
The list shows a part of the results. The main result of the screen is listed elsewhere. These columns were measured beside it and carry no call. The list favours compounds with an active or inconclusive main result. The note in brackets gives the kind of curve behind each potency; many fits are weak.

Experiment: qHTS Assay for Lipid Storage Modulators in Drosophila S3 Cells;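 for cell number change: cells counted by Cell Tracker Red CMTPX staining in the red channel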
Conditions: BODIPY lipid droplet fluorescence, 18-24 h; for cell number change: measured here: cell count max response, cells fed with added oleic acid
Method in brief: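 Drosophila S3 cells got compounds at several concentrations plus oleic acid (400 uM solution). Laser-scanning cytometry with 488 nm excitation read lipid droplets at 500-530 nm and cells at 575-640 nm. Percent activity was relative to 20 uM Triacsin C.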

[1] = measured here: cell number channel AC50, cells fed with added oleic acid
[2] = measured here: lipid fluorescence (Fed channel) AC50, cells fed with added oleic acid

With `O=C(c1ccc(=O)oc1)N1CCCc2ccccc21` the cell number change was 12.8%.
Work on `COC(=O)C1=C(C)N(CCCC(=O)O)C(=O)NC1c1ccc(C(F)(F)F)cc1` (stereo not given) yielded a cell number change of 11.4%.
For `Cc1ccc(N(CC(=O)N/N=C/c2cccs2)S(C)(=O)=O)cc1Cl`, the cell number change was 50.4% and the AC50 [1] was 29.1 µM [rising, single point].
For `CCOC(=O)c1c(NC(=O)c2nn(CC)cc2Br)sc2c1CCCCC2`, the AC50 [1] was 1.64 µM [rising, partial curve].
In the case of `O=C(NCCCN1CCOCC1)c1ccc2c(c1)N(Cc1ccccc1)C(=O)c1ccccc1S2`, the AC50 [1] is reported as 3.66 µM [falling, partial curve, poor fit].
For `COc1ccccc1CNC(=O)COC(=O)Cc1cccs1`, the cell number change was 35.9%.
With `COc1ccc(CNC(=O)COC(=O)CN2C(=O)C(C)Oc3ccc(C)cc32)cc1` (stereo not given) the cell number change was 7.08% and the AC50 [2] was 2.06 µM [rising, partial curve].
In the case of `CCCN1Cc2cccc(C(=O)Nc3ccc4c(c3)OCO4)c2C1=O`, the cell number change is reported as -12.5% and the AC50 [2] is reported as 6.51 µM [rising, partial curve, poor fit].
With `COc1cc(C(=O)Nc2cnc(NC(=O)C(C)C)cc2C)cc(OC)c1OC` the cell number change was 14% and the AC50 [2] was 6.51 µM [falling, single point].
In the case of `COc1ccc(-c2ncc3ccccn23)cc1OC`, the cell number change is reported as -16.5% and the AC50 [2] is reported as 2.91 µM [falling, full curve, poor fit].
For `COc1ccccc1NC(=O)Nc1nc(CC(=O)Nc2ccc(N(C)C)cc2)cs1`, the AC50 [2] was 1.84 µM [rising, partial curve].
With `O=C(CN1C(=O)NC2(CCCCC2)C1=O)N1CCN(S(=O)(=O)c2ccccc2)CC1` the cell number change was -3.92% and the AC50 [2] was 20.6 µM [rising, partial curve, poor fit].
In the case of `Cc1cc(Oc2nc3ccccn3c(=O)c2/C=C(\C#N)C(=O)NC2CCS(=O)(=O)C2)ccc1Cl` (stereo not given), the cell number change is reported as -8.73% and the AC50 [2] is reported as 29.1 µM [falling, single point].
In the case of `CC1=C(C(=O)Nc2ccccc2)C(c2ccco2)C(C#N)=C(SCc2ccccc2)N1` (stereo not given), the cell number change is reported as -22.6% and the AC50 [2] is reported as 2.06 µM [rising, partial curve, poor fit].
For `Cc1ccc(C)n1-c1ccncc1`, the cell number change was 6.79%.
For `CC(NC(=O)NC1CCCCC1)C(c1cccs1)N1CCN(c2ccccc2)CC1` (stereo not given), the cell number change was 38.2%, the AC50 [1] was 29.1 µM [rising, single point] and the AC50 [2] was 29.1 µM [rising, single point].
For `O=C(Nc1cccnc1)c1ccc(COc2ccccc2Br)cc1`, the cell number change was 16.7% and the AC50 [2] was 29.1 µM [rising, single point].
For `COc1ccc(-c2nc(-c3ccc(NC(=O)c4ccc(Br)o4)cc3)no2)cc1OC`, the cell number change was -66.7%, the AC50 [1] was 13 µM [falling, partial curve, poor fit] and the AC50 [2] was 18.4 µM [falling, partial curve, poor fit].
In the case of `Cc1ccc(C(=O)Sc2cccccc2=O)cc1`, the cell number change is reported as -45.9%, the AC50 [1] is reported as 10.3 µM [falling, partial curve] and the AC50 [2] is reported as 14.6 µM [falling, partial curve].
`Cc1ccc(-n2nc(C(=O)O)c(C)c(C#N)c2=O)cc1Cl` showed a cell number change of -4.42%.
With `CNC(=O)CSc1nc2nc(C)cc(C)n2n1` the cell number change was -2.7% and the AC50 [2] was 3.66 µM [falling, partial curve].
For `C=CCn1c(CSc2nc3ccccc3s2)nnc1SCC(=O)OCC`, the cell number change was -83.8%, the AC50 [1] was 29.1 µM [falling, single point] and the AC50 [2] was 29.1 µM [falling, single point].
With `Cc1ccc(Nc2nnc(SC(C)C(=O)NC3CC3)s2)cc1` (stereo not given) the cell number change was -15.8% and the AC50 [2] was 5.17 µM [rising, partial curve, poor fit].
For `CCOc1ccccc1N1CCN(CC(=O)NC(C)c2ccccc2)CC1` (stereo not given), the cell number change was -11.5% and the AC50 [2] was 6.51 µM [falling, single point].
In the case of `CNC(=O)COC(=O)c1cc(SC)ccc1Cl`, the cell number change is reported as -33.8% and the AC50 [1] is reported as 29.1 µM [falling, single point].
In the case of `CN(C)C(=O)CN1C(=O)NC(c2ccccc2)(c2ccccc2)C1=O`, the cell number change is reported as 3.33%.
In the case of `CCC(=O)NNc1nc2c(F)cccc2s1`, the cell number change is reported as -3.7%, the AC50 [1] is reported as 0.092 µM [falling, single point] and the AC50 [2] is reported as 0.116 µM [falling, single point].
With `C=CCOC(=O)N1CCN(c2cccc(C(F)(F)F)c2)CC1` the AC50 [1] was 6.51 µM [rising, partial curve] and the AC50 [2] was 6.51 µM [falling, partial curve, poor fit].
In the case of `S=C(c1ccc(Cl)cc1)N1CCN(Cc2ccccc2)CC1`, the cell number change is reported as -29.2%, the AC50 [1] is reported as 3.66 µM [falling, single point] and the AC50 [2] is reported as 3.66 µM [falling, full curve, poor fit].
`CC(C)Cn1c(=S)[nH]c2cc(Cl)ccc21` gave a cell number change of -24.7%.
In the case of `CCN(CC)C(=O)CSc1nc2ccccc2c(=O)n1CC`, the cell number change is reported as 10.7% and the AC50 [2] is reported as 0.058 µM [rising, full curve, poor fit].
With `Cc1nc(SCC(=O)NC2CC2)c2c(C)c(C)sc2n1` the cell number change was 10.7% and the AC50 [2] was 20.6 µM [rising, partial curve].
With `CC(C)NC(=O)c1ccccc1NC(=O)C1CCCO1` (stereo not given) the cell number change was 1.75% and the AC50 [2] was 0.146 µM [falling, full curve].
In the case of `S=C(NCc1ccccc1)Nc1cccc2cnccc12`, the cell number change is reported as -16.2% and the AC50 [2] is reported as 29.1 µM [falling, single point].
For `Cc1ccc[n+](CC(=O)Nc2nc3ccccc3s2)c1`, the cell number change was -15.9% and the AC50 [2] was 0.58 µM [falling, full curve, poor fit].
With `CCC(=O)Nc1ccc(Cl)c(NC(=S)NC(=O)c2ccco2)c1` the cell number change was -1.59% and the AC50 [2] was 29.1 µM [rising, single point].
Molecule `O=C1C=C(c2ccc(F)c(Cl)c2)C[C@@H](c2ccc(F)cc2)C1` has a cell number change of -9.72%.
In the case of `CC1CCN(c2ccc(NC(=S)NC(=O)c3ccco3)cc2)CC1`, the cell number change is reported as -21.1% and the AC50 [2] is reported as 32.6 µM [falling, single point].
For `COC(=O)C1=C(C(=O)OC)C2(OC1c1cccc(F)c1)C(=O)c1ccccc1C2=O` (stereo not given), the cell number change was -15.4% and the AC50 [1] was 0.13 µM [falling, full curve, poor fit].
In the case of `CCc1c(C(C)S(=O)(=O)c2ccc(C)cc2)[nH]c(=O)n1-c1ccc(C)cc1` (stereo not given), the AC50 [2] is reported as 29.1 µM [falling, single point].
For `N#CC1=C(SCc2ccccc2)NC(=O)C(C#N)C12CCCC2` (stereo not given), the AC50 [2] was 0.461 µM [rising, partial curve, poor fit].
For `COc1cc2nc(SCC(N)=O)n(CCC3=CCCCC3)c(=O)c2cc1OC`, the cell number change was 9.14% and the AC50 [2] was 2.91 µM [rising, full curve].
For `CCCc1cc(=O)oc2c(C)c(OCC(=O)Nc3cccnc3)ccc12`, the cell number change was 5.19% and the AC50 [2] was 29.1 µM [falling, single point].
With `Cc1ccc(C(=O)NCCc2ccc(F)cc2)s1` the cell number change was 26.8% and the AC50 [1] was 0.0206 µM [rising, full curve, poor fit].
With `COc1ccc(OCCCC(=O)OC(C)C(=O)Nc2ccc(NC(C)=O)cc2)cc1` (stereo not given) the cell number change was 2.7% and the AC50 [2] was 29.1 µM [rising, single point].
In the case of `Cc1nn(C(C)C(=O)NCCCc2ccccc2)c(=O)c2cc3occc3n12` (stereo not given), the cell number change is reported as 9.62% and the AC50 [1] is reported as 0.731 µM [rising, full curve, poor fit].
For `Cc1nc2nc(C)c(NS(=O)(=O)c3cccs3)c(=O)n2[nH]1`, the cell number change was 1.35% and the AC50 [2] was 0.82 µM [rising, full curve].
With `COc1cc(CNC(C)(C)C)ccc1OCC(=O)NC(C)(C)C` the cell number change was -22.9% and the AC50 [1] was 2.59 µM [falling, full curve, poor fit].
For `CC(C)COc1cccc(C(=O)NC(=S)Nc2cccc(NC(=O)c3ccccc3Cl)c2)c1`, the cell number change was 1.24% and the AC50 [2] was 0.517 µM [rising, full curve].
With `COc1ccc(C2(C)NC(=O)N(CC(=O)Nc3c(C)n(C)n(-c4ccccc4)c3=O)C2=O)cc1` (stereo not given) the cell number change was -6.08% and the AC50 [2] was 2.31 µM [falling, single point].
With `CCCCN(C(=O)C1CC(=O)N(Cc2ccc(C)cc2)C1)c1c(N)n(CC(C)C)c(=O)[nH]c1=O` (stereo not given) the AC50 [2] was 2.59 µM [rising, partial curve].
For `CSc1ccccc1OCc1cc(C(=O)NCCC2CCCCO2)no1` (stereo not given), the cell number change was -14.4%, the AC50 [1] was 4.61 µM [falling, single point] and the AC50 [2] was 6.51 µM [rising, single point].
With `Cc1ccc(C(=O)C(C)OC(=O)C2CCN(c3ccc(C(F)(F)F)cn3)CC2)cc1C` (stereo not given) the cell number change was -33.9% and the AC50 [2] was 0.13 µM [rising, full curve, poor fit].
For `Cn1cccc1C(=O)c1cccc([N+](=O)[O-])c1`, the cell number change was 25.3% and the AC50 [2] was 6.51 µM [rising, single point].
With `CCOc1ccc(C(=O)C(C)OC(=O)c2cnc(C)cn2)cc1` (stereo not given) the cell number change was -1.27%.
For `COCc1ccc(C(=O)NC(C)c2cnn(-c3ccccc3C)c2C)o1` (stereo not given), the cell number change was -51.9%, the AC50 [1] was 6.51 µM [falling, partial curve] and the AC50 [2] was 2.91 µM [falling, partial curve].
For `CCCSc1nc2c(c(=O)[nH]c(=O)n2C)n1C`, the cell number change was -0.337% and the AC50 [1] was 6.51 µM [rising, single point].
With `CCCCSc1nnc(-c2ccc(NC(=O)CCc3ccccc3)cc2)n1C` the cell number change was -14.6% and the AC50 [2] was 8.2 µM [falling, partial curve, poor fit].
With `COc1cc2c(cc1OC)CN(S(=O)(=O)c1ccc3c(c1)OCCO3)CC2` the cell number change was 2.82% and the AC50 [2] was 14.6 µM [falling, single point].
With `O=C(NCc1ccccc1Cl)c1ccc(S(=O)(=O)N2CCCC2)cc1` the cell number change was -34% and the AC50 [1] was 1.3 µM [falling, full curve, poor fit].
In the case of `CCOC(=O)c1c(-c2ccccc2)csc1/N=C/C1C(=O)CCCC1=O`, the AC50 [1] is reported as 1.84 µM [rising, partial curve] and the AC50 [2] is reported as 29.1 µM [rising, single point].
